Data from the supplement of paper PMC10849652.
Some of the results follow.

Chains of the proteins cited; added tags and fusions are not shown. Lines headed by an entry give the natural chain unless they say otherwise; changes in a name come on top.
UniProt H0YH80: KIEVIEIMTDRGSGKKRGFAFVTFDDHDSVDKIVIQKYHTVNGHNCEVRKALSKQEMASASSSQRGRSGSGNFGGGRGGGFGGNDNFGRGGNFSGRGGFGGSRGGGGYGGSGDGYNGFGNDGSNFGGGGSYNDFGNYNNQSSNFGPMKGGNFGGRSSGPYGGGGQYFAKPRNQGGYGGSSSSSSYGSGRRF
UniProt Q96EW2: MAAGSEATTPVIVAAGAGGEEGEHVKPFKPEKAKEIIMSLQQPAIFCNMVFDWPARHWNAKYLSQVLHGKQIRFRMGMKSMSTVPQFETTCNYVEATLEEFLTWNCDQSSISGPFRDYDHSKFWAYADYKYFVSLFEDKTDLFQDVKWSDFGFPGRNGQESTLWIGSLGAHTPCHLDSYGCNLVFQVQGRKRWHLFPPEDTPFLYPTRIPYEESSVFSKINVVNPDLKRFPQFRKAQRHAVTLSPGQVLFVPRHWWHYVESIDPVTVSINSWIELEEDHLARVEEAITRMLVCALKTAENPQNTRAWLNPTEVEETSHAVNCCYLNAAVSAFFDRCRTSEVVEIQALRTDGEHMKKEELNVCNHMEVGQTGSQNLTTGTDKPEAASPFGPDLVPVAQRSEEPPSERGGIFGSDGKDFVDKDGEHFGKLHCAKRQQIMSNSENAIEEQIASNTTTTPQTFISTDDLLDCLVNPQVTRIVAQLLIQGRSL
UniProt Q7Z6Z7, whole entry, looked up: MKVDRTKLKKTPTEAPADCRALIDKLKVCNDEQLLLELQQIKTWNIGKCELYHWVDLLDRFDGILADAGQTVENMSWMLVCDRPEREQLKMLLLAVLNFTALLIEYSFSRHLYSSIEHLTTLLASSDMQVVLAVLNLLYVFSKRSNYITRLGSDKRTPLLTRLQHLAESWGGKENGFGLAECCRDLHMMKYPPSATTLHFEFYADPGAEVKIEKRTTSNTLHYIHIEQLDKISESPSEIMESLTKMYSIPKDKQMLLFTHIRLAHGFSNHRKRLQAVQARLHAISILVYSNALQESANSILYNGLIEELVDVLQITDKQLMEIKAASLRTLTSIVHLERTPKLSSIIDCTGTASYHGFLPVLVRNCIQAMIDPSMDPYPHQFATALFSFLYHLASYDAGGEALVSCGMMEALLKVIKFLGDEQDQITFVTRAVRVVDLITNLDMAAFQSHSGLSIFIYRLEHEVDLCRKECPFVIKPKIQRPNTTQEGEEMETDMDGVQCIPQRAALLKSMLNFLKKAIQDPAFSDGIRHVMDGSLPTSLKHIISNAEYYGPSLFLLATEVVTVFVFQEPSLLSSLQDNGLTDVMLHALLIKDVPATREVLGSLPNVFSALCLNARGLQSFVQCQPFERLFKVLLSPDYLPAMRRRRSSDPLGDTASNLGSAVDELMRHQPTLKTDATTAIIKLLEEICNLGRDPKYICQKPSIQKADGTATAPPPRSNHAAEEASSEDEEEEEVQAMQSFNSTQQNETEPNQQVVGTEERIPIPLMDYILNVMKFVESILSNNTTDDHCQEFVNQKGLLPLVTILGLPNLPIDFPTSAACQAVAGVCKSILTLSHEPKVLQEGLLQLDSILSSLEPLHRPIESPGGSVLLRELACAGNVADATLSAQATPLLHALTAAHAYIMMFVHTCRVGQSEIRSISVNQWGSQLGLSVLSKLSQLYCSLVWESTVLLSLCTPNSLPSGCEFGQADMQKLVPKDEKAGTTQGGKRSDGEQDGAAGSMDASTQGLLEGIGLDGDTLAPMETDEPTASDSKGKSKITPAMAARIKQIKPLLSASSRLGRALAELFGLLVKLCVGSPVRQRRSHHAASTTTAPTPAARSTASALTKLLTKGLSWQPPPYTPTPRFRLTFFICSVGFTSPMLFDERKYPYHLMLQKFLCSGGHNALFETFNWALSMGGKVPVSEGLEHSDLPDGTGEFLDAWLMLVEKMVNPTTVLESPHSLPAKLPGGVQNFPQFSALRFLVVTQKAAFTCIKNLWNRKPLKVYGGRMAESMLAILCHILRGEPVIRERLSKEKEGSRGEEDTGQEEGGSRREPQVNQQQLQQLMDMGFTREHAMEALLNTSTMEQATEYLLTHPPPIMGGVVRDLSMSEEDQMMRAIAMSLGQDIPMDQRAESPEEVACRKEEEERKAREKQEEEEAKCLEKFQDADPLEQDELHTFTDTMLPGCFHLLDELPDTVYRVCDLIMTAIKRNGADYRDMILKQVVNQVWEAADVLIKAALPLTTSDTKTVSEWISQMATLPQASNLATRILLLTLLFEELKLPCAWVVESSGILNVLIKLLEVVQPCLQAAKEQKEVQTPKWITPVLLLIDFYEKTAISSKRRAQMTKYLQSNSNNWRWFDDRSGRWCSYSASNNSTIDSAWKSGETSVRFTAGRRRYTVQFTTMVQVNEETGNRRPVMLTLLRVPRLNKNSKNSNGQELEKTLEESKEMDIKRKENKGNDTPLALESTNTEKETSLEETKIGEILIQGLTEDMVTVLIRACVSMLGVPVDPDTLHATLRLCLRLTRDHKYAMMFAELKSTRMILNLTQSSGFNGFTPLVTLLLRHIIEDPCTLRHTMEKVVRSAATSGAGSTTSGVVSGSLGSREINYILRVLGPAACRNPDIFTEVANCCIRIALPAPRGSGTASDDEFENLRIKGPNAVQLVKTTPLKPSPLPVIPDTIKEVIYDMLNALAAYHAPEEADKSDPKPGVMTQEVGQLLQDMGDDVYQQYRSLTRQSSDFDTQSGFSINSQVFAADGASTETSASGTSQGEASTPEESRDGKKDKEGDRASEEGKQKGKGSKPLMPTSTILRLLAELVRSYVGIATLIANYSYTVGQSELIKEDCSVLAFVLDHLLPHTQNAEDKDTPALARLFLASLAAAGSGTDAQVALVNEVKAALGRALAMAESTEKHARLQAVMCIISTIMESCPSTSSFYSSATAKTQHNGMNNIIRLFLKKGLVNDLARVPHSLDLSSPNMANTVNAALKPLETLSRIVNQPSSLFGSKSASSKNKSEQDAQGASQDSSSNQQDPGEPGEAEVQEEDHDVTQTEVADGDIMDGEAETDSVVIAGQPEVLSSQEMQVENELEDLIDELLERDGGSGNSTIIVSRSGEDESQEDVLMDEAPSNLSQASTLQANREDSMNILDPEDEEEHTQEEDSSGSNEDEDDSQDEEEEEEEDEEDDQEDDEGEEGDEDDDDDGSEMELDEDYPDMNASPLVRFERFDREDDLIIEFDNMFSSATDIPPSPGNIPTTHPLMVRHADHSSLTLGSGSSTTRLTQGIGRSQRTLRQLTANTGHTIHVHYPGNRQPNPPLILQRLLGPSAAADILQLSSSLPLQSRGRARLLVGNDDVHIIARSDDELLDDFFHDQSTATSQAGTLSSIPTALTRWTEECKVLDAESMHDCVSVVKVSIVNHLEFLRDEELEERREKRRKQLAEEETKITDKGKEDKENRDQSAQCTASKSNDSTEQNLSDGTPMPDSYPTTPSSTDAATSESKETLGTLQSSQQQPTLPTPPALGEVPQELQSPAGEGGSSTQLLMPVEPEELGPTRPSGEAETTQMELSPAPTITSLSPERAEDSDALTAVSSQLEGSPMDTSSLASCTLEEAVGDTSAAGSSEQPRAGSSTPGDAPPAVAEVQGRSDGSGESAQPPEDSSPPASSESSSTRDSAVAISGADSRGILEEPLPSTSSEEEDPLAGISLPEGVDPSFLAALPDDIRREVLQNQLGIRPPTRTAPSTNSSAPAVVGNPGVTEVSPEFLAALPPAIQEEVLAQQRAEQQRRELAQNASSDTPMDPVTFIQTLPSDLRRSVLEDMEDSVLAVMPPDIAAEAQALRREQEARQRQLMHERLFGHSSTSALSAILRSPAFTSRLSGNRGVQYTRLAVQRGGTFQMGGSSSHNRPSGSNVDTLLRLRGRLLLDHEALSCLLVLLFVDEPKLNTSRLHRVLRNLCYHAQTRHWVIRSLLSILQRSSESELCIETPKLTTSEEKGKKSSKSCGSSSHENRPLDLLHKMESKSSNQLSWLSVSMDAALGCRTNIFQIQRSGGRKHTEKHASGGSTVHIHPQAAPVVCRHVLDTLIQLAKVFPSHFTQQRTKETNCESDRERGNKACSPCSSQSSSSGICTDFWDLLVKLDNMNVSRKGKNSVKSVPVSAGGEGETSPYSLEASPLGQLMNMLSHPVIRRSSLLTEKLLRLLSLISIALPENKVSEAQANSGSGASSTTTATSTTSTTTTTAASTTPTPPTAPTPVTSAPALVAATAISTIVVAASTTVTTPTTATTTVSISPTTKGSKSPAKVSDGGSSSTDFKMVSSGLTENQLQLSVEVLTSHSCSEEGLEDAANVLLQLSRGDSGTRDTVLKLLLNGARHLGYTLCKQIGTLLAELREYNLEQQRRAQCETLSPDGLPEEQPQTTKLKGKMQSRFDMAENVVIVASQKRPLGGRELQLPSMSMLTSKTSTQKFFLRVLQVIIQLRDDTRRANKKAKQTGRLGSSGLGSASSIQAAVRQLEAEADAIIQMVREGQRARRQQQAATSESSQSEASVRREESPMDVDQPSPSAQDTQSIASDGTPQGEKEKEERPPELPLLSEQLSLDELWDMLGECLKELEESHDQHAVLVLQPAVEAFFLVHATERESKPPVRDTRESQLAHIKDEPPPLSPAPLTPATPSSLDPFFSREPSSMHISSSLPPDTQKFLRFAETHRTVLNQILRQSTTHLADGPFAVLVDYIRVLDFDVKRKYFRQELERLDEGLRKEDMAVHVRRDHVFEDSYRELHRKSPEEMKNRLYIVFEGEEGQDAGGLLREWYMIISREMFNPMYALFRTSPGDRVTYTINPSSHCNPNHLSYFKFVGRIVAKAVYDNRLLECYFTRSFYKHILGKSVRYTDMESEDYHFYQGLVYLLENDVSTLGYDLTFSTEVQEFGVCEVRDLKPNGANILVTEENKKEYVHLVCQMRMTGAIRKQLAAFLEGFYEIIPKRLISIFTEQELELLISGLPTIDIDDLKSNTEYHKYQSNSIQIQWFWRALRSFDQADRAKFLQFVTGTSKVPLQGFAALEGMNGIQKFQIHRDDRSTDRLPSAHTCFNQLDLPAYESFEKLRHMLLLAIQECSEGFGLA
UniProt Q8TCT9: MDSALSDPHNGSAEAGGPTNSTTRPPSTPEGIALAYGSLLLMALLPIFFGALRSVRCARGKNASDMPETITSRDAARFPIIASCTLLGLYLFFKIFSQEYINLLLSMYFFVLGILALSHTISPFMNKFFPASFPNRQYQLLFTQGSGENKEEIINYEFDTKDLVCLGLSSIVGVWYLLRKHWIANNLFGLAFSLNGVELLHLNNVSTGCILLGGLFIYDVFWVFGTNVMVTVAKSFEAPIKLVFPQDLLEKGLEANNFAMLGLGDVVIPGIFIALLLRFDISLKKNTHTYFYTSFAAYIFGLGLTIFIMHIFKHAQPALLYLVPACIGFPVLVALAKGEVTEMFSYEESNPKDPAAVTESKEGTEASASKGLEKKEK
UniProt P30939: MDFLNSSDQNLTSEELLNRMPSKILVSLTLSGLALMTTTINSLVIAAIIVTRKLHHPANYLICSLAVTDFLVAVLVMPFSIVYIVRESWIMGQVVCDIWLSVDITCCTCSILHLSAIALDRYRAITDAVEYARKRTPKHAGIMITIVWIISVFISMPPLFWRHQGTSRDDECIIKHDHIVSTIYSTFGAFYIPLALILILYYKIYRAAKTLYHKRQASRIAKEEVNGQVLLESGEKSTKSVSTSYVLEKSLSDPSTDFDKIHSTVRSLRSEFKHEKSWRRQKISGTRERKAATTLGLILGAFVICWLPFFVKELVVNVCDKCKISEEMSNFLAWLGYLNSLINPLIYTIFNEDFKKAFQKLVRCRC
UniProt Q9P0W2: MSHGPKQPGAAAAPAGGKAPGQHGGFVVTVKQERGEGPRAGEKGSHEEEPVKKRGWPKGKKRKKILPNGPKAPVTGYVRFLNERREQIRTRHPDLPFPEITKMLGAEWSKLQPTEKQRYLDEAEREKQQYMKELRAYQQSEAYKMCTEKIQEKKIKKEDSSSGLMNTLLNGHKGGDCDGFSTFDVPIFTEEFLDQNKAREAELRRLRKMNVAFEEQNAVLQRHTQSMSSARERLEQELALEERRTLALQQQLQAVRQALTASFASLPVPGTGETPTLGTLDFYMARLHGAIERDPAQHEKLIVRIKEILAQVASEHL
UniProt Q9Y241: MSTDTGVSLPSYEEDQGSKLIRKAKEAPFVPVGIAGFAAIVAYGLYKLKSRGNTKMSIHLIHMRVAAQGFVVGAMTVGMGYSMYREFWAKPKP
UniProt O75506: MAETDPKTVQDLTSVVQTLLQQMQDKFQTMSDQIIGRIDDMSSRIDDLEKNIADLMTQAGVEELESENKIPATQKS
UniProt P41134: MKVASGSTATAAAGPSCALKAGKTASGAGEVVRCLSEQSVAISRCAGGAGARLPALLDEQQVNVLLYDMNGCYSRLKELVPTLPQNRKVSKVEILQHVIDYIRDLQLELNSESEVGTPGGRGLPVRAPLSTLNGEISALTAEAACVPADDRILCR

compound: C1=CC2=C(C=CC(=C2)/C=C\3/C(=O)NC(=NCC4=CC=CS4)S3)N=C1; assay: log2 fold change, soluble protein after heating vs DMSO (PISA); higher = thermal stabilisation; K562 cells, 10 uM, 30 min; active = over 0.2 and 3.5 SD of the protein, either way, in both replicates (recomputed)
Procedure, shortened: (§1)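 For each measurement, 10 μM compound was applied for 30 min to K562 cells at 2×10^6 cells/mL. Aliquots were heated for 3 min across 48°C-58°C, pooled, and extracted in PBS with 0.5% NP-40 at 4°C; the supernatant after 21,000xg for 90 min was soluble protein. This was quantified by TMTpro 16plex LC-MS/MS with channel sums equalised, and thermal stability was reported relative to control samples from duplicates, on a log2 fold-change scale.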

log2 fold change, inactive:
IBTK (UniProt Q9P2D0) -0.064
HOMER2 (UniProt Q9NSB8) 0.309
HNRNPA1 (UniProt H0YH80) -0.333
HOOK1 (UniProt Q9UJC3) 0.093
HNRNPUL1 (UniProt M0R247) 0.545
HSPBAP1 (UniProt Q96EW2) 0.06
HOXD9 (UniProt P28356) -0.036
HUWE1 isoform 2 (UniProt Q7Z6Z7) -0.217
HM13 (UniProt Q8TCT9) 0.053
HTR1F (UniProt P30939) 0.058
HLA-E (UniProt P13747) -0.141

compound: C1=CC2=NC=CN=C2C=C1/C=C/3\C(=O)NC(=O)S3; assay: as above
Procedure, shortened: as §1

log2 fold change, inactive:
IBTK (UniProt Q9P2D0) -0.091
HNRNPA1 (UniProt H0YH80) 0.064
HNRNPR (UniProt O43390) 0.127
HNRNPK isoform 3 (UniProt P61978) 0.06
HMBS (UniProt F5H226) 0.041
HMG20B (UniProt Q9P0W2) -0.005
HUWE1, A0A087X1S3 0.088
HIGD1A isoform 2 (UniProt Q9Y241) 0.142
ICOSLG isoform 2 (UniProt O75144) -0.044
HSBP1 (UniProt O75506) 0.397
HM13 (UniProt Q8TCT9) 0.105
ID1 (UniProt P41134) 0.071
HLA-E (UniProt P13747) 0.075
ICE1 (UniProt Q9Y2F5) 0.001
